Laboratory results taken from US4002754A, “Substituted piperazinyliminorifamycins” (Gruppo Lepetit S.p.A., priority 1975, dated 1977).
In brackets after ≈: the same amount, converted by molar mass.

Test system: Mycobacterium tuberculosis H37 Rv
Experiment: minimal inhibitory concentration (antimicrobial activity)
Format: cell-based
Settings: H37RV, read-out: minimal inhibitory concentration
Source text: The unexpected biological characteristics of the novel rifamycins have been evidenced by considering the survival time after a daily administration of rifampicin and a once-a-week administration of the same dose level per os of 3-[4-(2-propenyl)-1-piperazinyl]iminorifamycin SV (hereinafter referred to as "propenyl derivative") to mice infected with Mycobacterium tuberculosis H37 Rv. […] For instance, the value of the minimal inhibitory concentration of propenyl derivative against Mycobacterium tuberculosis H37 Rv is 0.02 μg/ml while that of rifampicin is 0.5 μg/ml.

SMILES: CO[C@H]1/C=C/O[C@@]2(C)Oc3c(C)c(O)c4c(O)c(c(/C=N/N5CCN(C)CC5)c(O)c4c3C2=O)NC(=O)/C(C)=C\C=C\[C@H](C)[C@H](O)[C@@H](C)[C@@H](O)[C@@H](C)[C@H](OC(C)=O)[C@@H]1C [rifampicin, reference compound]
- MIC: 0.5 µg/mL (≈ 0.608 µM)
